Experimental data taken from PubChem BioAssay AID2685 (National Center for Advancing Translational Sciences (NCATS), 2010).
The list shows a part of the results. Further columns of the screen follow, without active or inactive calls. Most of these compounds were active or inconclusive in the main read-out, so they are no random draw. Words in brackets tell the shape of the fitted curve; partial curves, single points and poor fits give uncertain potencies.

Assay: qHTS Assay for Lipid Storage Modulators in Drosophila S3 Cells;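 on cell number change: cells counted by Cell Tracker Red CMTPX staining in the red channel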
Conditions: BODIPY lipid droplet fluorescence, 18-24 h; for cell number change: measured here: cell count max response, cells fed with added oleic acid
Outline: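 Drosophila S3 cells loaded with oleic acid (400 uM, as added) and compounds at several concentrations; lipid droplets imaged by 488-nm laser-scanning cytometry, 500–530 nm intensity and object ratio to cell channel. Percent activity normalized to 20 uM Triacsin C.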

[1] = measured here: lipid fluorescence (Fed channel) AC50, cells fed with added oleic acid
[2] = measured here: cell number channel AC50, cells fed with added oleic acid

Q: For `CCCCCCCCCCOC(=O)Cn1c(COc2ccccc2)[n+](C)c2ccccc21`, which cell number change is on record?
A: -13.5%

Q: What about the AC50 [1] of the same compound?
A: 3660 nM [falling, full curve]

Q: Which results are given for `O=C1c2ccccc2-c2c1nc1c([n+]2[O-])CCCC1`?
A: cell number change: 0.481%; AC50 [1]: 9200 nM [rising, single point]

Q: With `Cc1cccc(NC(=O)CSc2nc3[nH]ncc3c(=O)[nH]2)c1` as the compound, how does the cell number change read?
A: 0.663%

Q: Which cell number change does the source give for `COc1ccc(-c2ccc3c(N)c(C(=O)c4ccc(OC)c(OC)c4)sc3n2)cc1` here?
A: -3.31%

Q: With `CN=Cc1sc2ccccc2c1O` as the compound, how does the cell number change read?
A: -17.9%

Q: For `Cc1[nH]c2c(C)cccc2c(=O)c1Br`, which AC50 [2] is on record?
A: 259 nM [rising, partial curve, poor fit]

Q: And the AC50 [1]?
A: 291 nM [rising, partial curve, poor fit]

Q: For `COCCNC(=O)c1c[nH]c2ccc(S(=O)(=O)Nc3ccccc3F)cc2c1=O`, which cell number change is on record?
A: -9.72%

Q: What about the AC50 [2] of the same compound?
A: 6510 nM [rising, single point]

Q: What about the AC50 [1] of the same compound?
A: 6510 nM [falling, full curve]

Q: With `COC(=O)Nc1ccc(S(=O)(=O)NCCCCCC(=O)O)cc1` as the compound, how does the cell number change read?
A: -10.4%

Q: What about the AC50 [1] of the same compound?
A: 29100 nM [falling, single point]

Q: Which cell number change does the source give for `COc1ccccc1OCCNC(=O)c1cc([N+](=O)[O-])cc([N+](=O)[O-])c1` here?
A: -9.6%

Q: Which AC50 [2] does the source give for `Cc1cccc(Cl)c1NC(=S)N1CCN(c2ccc([N+](=O)[O-])cn2)CC1` here?
A: 2590 nM [rising, single point]

Q: What does the source list for `Cc1nc([N+](=O)[O-])cn1CCC#N`?
A: cell number change: -7.05%; AC50 [1]: 1300 nM [falling, full curve, poor fit]

Q: With `O=[N+]([O-])c1cccc(CN2CCC(Cc3ccccc3)CC2)c1` as the compound, how does the cell number change read?
A: 30.1%

Q: And the AC50 [2]?
A: 25900 nM [rising, single point]

Q: Which cell number change does the source give for `COc1cc(C(=O)NCC(c2ccco2)N2CCCC2)ccc1OCc1ccccc1` (configuration not stated) here?
A: -1.87%

Q: What about the AC50 [1] of the same compound?
A: 29100 nM [falling, single point]

Q: What does the source list for `CC(Sc1nc2scc(-c3ccccc3)c2c(=O)[nH]1)C(=O)NC(N)=O` (configuration not stated)?
A: cell number change: -17.8%; AC50 [1]: 2590 nM [falling, partial curve, poor fit]

Q: For `CCOC(=O)C1(Cc2ccccc2)CCCN(C(=O)c2cnn(CC)c2)C1` (configuration not stated), which cell number change is on record?
A: -11%

Q: With `CSc1ccc(C#N)cc1NC(=O)c1ccccc1C` as the compound, how does the cell number change read?
A: -31.9%

Q: What about the AC50 [2] of the same compound?
A: 116 nM [falling, full curve, poor fit]

Q: Which cell number change does the source give for `COc1ccc(Nc2ccc3c(c2)=NC2(CCCCC2)[N+]=3[O-])cc1` here?
A: -5.5%

Q: What about the AC50 [1] of the same compound?
A: 2310 nM [falling, single point]

Q: For `Cc1ccc(NC(=O)CSc2ccccc2)cc1S(=O)(=O)N1CCCCC1`, which cell number change is on record?
A: -11.2%

Q: For `COc1cccc(C(=O)Nc2ccc(S(=O)(=O)NCc3ccco3)cc2)c1`, which cell number change is on record?
A: -2.6%

Q: What about the AC50 [1] of the same compound?
A: 2590 nM [rising, single point]

Q: With `CC(C)NC(=O)c1ccc(-c2ccccc2C(F)(F)F)o1` as the compound, how does the cell number change read?
A: -2.9%

Q: What about the AC50 [1] of the same compound?
A: 411 nM [rising, single point]

Q: Which cell number change does the source give for `CCCc1cc(=O)[nH]c(SCC(=O)N2CCN(c3ccccc3)CC2)n1` here?
A: -10.8%

Q: What about the AC50 [1] of the same compound?
A: 651 nM [falling, full curve, poor fit]

Q: Which cell number change does the source give for `Cc1ccc(S(=O)(=O)N(Cc2ccc(C(F)(F)F)cc2)C(=O)N2CCN(C)CC2)cc1` here?
A: 150%

Q: And the AC50 [2]?
A: 29100 nM [rising, single point]

Q: For `CCOC(=O)c1sc(NC(=O)C(OC(C)=O)c2ccccc2)nc1C` (configuration not stated), which cell number change is on record?
A: 14%

Q: Which results are given for `Cc1ncc(CO)c2c1Oc1nc(-c3ccccc3F)nc(SCC(=O)N(C)c3ccccc3)c1C2`?
A: cell number change: -26.6%; AC50 [2]: 164 nM [falling, full curve, poor fit]; AC50 [1]: 2910 nM [falling, full curve]

Q: What does the source list for `O=C(O)COn1c(-c2ccccc2)nc2ccc(Cl)cc21`?
A: cell number change: 10.8%; AC50 [2]: 3260 nM [rising, single point]; AC50 [1]: 2910 nM [rising, single point]

Q: With `CC1=NN(c2ccccc2)C(=O)/C1=C\C=C1/N(C)c2ccccc2C1(C)C` as the compound, how does the cell number change read?
A: -64.5%

Q: What about the AC50 [2] of the same compound?
A: 10300 nM [falling, partial curve]

Q: What about the AC50 [1] of the same compound?
A: 8200 nM [falling, partial curve]

Q: For `COc1ccc(/C(O)=C2/C(=O)C(=O)N(Cc3cccnc3)C2c2ccncc2)cc1F` (configuration not stated), which cell number change is on record?
A: -73.2%

Q: And the AC50 [2]?
A: 10300 nM [falling, partial curve]

Q: And the AC50 [1]?
A: 6510 nM [falling, single point]

Q: Which cell number change does the source give for `CN(Cc1ccc(F)cc1)C(=O)c1cccc(S(=O)(=O)N2CCN(c3ccc(F)cc3)CC2)c1` here?
A: 1.84%

Q: What about the AC50 [1] of the same compound?
A: 1300 nM [rising, full curve, poor fit]

Q: Which cell number change does the source give for `Nc1ncnc2nc(SCC(=O)Nc3ccccc3F)[nH]c12` here?
A: 10%

Q: Which results are given for `Cc1cc(Nc2ccccc2)n(CCOC(=O)COc2ccccc2)n1`?
A: cell number change: -25%; AC50 [2]: 5.8 nM [falling, full curve, poor fit]; AC50 [1]: 4.61 nM [rising, full curve, poor fit]

Q: With `COC(=O)c1c(C(=O)OC)c2n(c1C)CCS2` as the compound, how does the cell number change read?
A: -10.8%

Q: What does the source list for `CCOc1ccc(N(CC(=O)NC2CCCC2)C(=O)CCC(=O)Nc2ccccn2)cc1`?
A: cell number change: -7.27%; AC50 [1]: 9.2 nM [rising, full curve, poor fit]

Q: For `CN(C)c1nn(C(=O)Nc2cccc(C(F)(F)F)c2)cc1-c1ccccc1`, which cell number change is on record?
A: 16.1%

Q: And the AC50 [1]?
A: 20600 nM [rising, single point]

Q: What does the source list for `O=C(OCCN1CCN(c2ncc(C(F)(F)F)cc2Cl)CC1)c1ccc(Cl)cc1`?
A: cell number change: 40.1%; AC50 [1]: 6510 nM [falling, single point]

Q: With `CCN(CC)CCn1c2ccccc2c2n[nH]c(=S)nc21` as the compound, how does the cell number change read?
A: -21%

Q: Which results are given for `CC(=O)O/N=C(\N)c1cnn2c(C(F)(F)F)cc(C(F)(F)F)nc12`?
A: cell number change: -48%; AC50 [2]: 651 nM [falling, full curve]; AC50 [1]: 1840 nM [falling, single point]

Q: Which results are given for `OCCOCCOc1ccccc1OCCOCCO`?
A: cell number change: -16.7%; AC50 [1]: 29100 nM [falling, single point]

Q: For `Cc1cccc(-n2c(SCC(=O)N3CCN(c4ccccn4)CC3)nnc2N2CCOCC2)c1`, which cell number change is on record?
A: 4.54%

Q: And the AC50 [1]?
A: 4110 nM [falling, full curve, poor fit]

Q: For `O=C(OCC(=O)N1CCOCC1)c1ccc2ccccc2c1`, which cell number change is on record?
A: 38.3%

Q: And the AC50 [2]?
A: 16400 nM [rising, single point]

Q: What about the AC50 [1] of the same compound?
A: 14600 nM [rising, partial curve]

Q: Which results are given for `CC(OC(=O)c1ccccc1Oc1ccccc1)C(=O)NC1CC1` (configuration not stated)?
A: cell number change: 0.543%; AC50 [2]: 92 nM [rising, partial curve, poor fit]; AC50 [1]: 461 nM [rising, partial curve, poor fit]

Q: For `CCN1CCN(c2cc(C)c3cc(NC(=O)c4cccs4)ccc3n2)CC1`, which cell number change is on record?
A: 19.3%

Q: And the AC50 [1]?
A: 3660 nM [rising, single point]

Q: Which results are given for `COc1cccc(OCC(O)CN2CCN(c3ncccn3)CC2)c1` (configuration not stated)?
A: cell number change: 5.17%; AC50 [1]: 16400 nM [falling, single point]

Q: With `CCCCN(CC(=O)Nc1c(C)cccc1CC)C(=O)SCC` as the compound, how does the cell number change read?
A: 12.7%

Q: And the AC50 [1]?
A: 2310 nM [rising, full curve]

Q: Which cell number change does the source give for `Cc1noc(C)c1COC(=O)CCCc1c[nH]c2ccccc12` here?
A: 13%

Q: Which cell number change does the source give for `Cc1cc(C(=O)NCC(=O)OCC(=O)Nc2ccc(OC(F)F)cc2)ccc1[N+](=O)[O-]` here?
A: -8.16%

Q: And the AC50 [2]?
A: 731 nM [rising, full curve]

Q: What about the AC50 [1] of the same compound?
A: 731 nM [falling, full curve, poor fit]

Q: For `COc1ccc(C2NC(=S)NC3=C2CCCC3=C2SCCS2)cc1` (configuration not stated), which cell number change is on record?
A: -95.8%

Q: What about the AC50 [2] of the same compound?
A: 3660 nM [falling, full curve]

Q: Which cell number change does the source give for `Cc1ccc(C)c(N(C)C(=O)CCS(=O)(=O)c2cccc3nonc23)c1` here?
A: -0.417%

Q: With `Cc1ccc(C)c2nc3sc(C(=O)N4CCCc5ccccc54)c(N)c3cc12` as the compound, how does the cell number change read?
A: 10.6%

Q: And the AC50 [1]?
A: 18400 nM [falling, single point]

Q: With `CCOC(=O)C1=NNC2(c3ccc(C)cc3)C(=O)N(c3ccccc3)C(=O)C12` (configuration not stated) as the compound, how does the cell number change read?
A: -36.3%

Q: What about the AC50 [2] of the same compound?
A: 580 nM [falling, full curve, poor fit]

Q: And the AC50 [1]?
A: 259 nM [falling, full curve, poor fit]

Q: What does the source list for `COC(=O)NNC(=S)Nc1ccc(Br)cc1`?
A: cell number change: -30.8%; AC50 [2]: 8200 nM [falling, partial curve, poor fit]; AC50 [1]: 29100 nM [falling, single point]

Q: Which results are given for `COc1ccc(C(=O)N/N=C(\C)CC(=O)NC2CCCCC2)c(OC)c1`?
A: cell number change: 5.49%; AC50 [1]: 6510 nM [rising, single point]

Q: With `Cc1n[nH]c(C)c1S(=O)(=O)N(CC(=O)Nc1ccc2c(c1)OCCO2)c1ccc(C(C)C)cc1` as the compound, how does the AC50 [1] read?
A: 29100 nM [falling, single point]

Q: Which cell number change does the source give for `CNS(=O)(=O)c1cc(S(=O)(=O)NC)c2cccc3c2c1NC3=O` here?
A: -9.07%

Q: And the AC50 [2]?
A: 51.7 nM [falling, full curve, poor fit]

Q: What about the AC50 [1] of the same compound?
A: 29100 nM [rising, single point]

Q: With `CN1CCN(NC(=O)c2cc(-c3ccc(Cl)s3)nc3ccccc23)CC1` as the compound, how does the cell number change read?
A: 28.8%

Q: What about the AC50 [1] of the same compound?
A: 580 nM [rising, single point]

Q: For `CCOC(=O)c1nnc(-c2ccccc2)[nH]c1=O`, which cell number change is on record?
A: -27%

Q: What about the AC50 [1] of the same compound?
A: 5.8 nM [falling, full curve, poor fit]

Q: With `Cc1cccc(Oc2nc(-c3ccccc3)cc(C)c2S(C)(=O)=O)c1C` as the compound, how does the cell number change read?
A: 40.1%

Q: And the AC50 [2]?
A: 4110 nM [rising, partial curve, poor fit]

Q: What about the AC50 [1] of the same compound?
A: 16400 nM [rising, partial curve]

Q: For `O=S(=O)(c1ccc(F)c(F)c1F)N1CCN(C(=S)NC2CC3CCC2C3)CC1` (configuration not stated), which cell number change is on record?
A: 10.2%

Q: Which cell number change does the source give for `COC(=O)CSc1nc2ccc(C)cc2[nH]1` here?
A: 0.896%

Q: What about the AC50 [2] of the same compound?
A: 580 nM [falling, single point]

Q: With `Cc1ccc(NC(=O)Cc2nnc(SCC(=O)Nc3ccc(N4CCOCC4)cc3)n2C)cc1` as the compound, how does the cell number change read?
A: 33.3%

Q: What about the AC50 [2] of the same compound?
A: 580 nM [rising, full curve, poor fit]
